Test results published in patent publication US6586617B1, “Sulfonamide derivatives” (Sumitomo Chemical Takeda Agro Company, Limited, priority 1999, dated 2003).
Some entries share one result that the patent states for a list of compounds. For at least one compound, name, drawing or mass did not settle the structure.

Test system: apple Alternaria leaf blotch (Alternaria mali)
Test: Test Example 3: protective effects against apple Alternaria leaf blotch
Format: in vivo
Settings: spray solution as in Test Example 1 (200 ppm), 10 ml/pot, apple seedlings (Starking-Delicious)

CCN(c1ccc(F)cc1[N+](=O)[O-])S(=O)(=O)c1ccc(C)cc1 [Compound No. 263, N-Ethyl-4′-fluoro-2′-nitro-p-toluenesulfonanilide]
protection score: 3 (the lesioned area ratio is less than 10%)

Cc1ccc(S(=O)(=O)N(C)c2ccc(C)c([N+](=O)[O-])c2)cc1 [Compound No. 126, N,4′-Dimethyl-3′-nitro-p-toluenesulfonanilide]
protection score: 3 (the lesioned area ratio is less than 10%)

CN(c1ccc(C#N)cc1[N+](=O)[O-])S(=O)(=O)c1ccc(Cl)cc1 [compound 411]
protection score: 3 (the lesioned area ratio is less than 10%)

Cc1ccc(S(=O)(=O)N(c2ccc([N+](=O)[O-])cc2[N+](=O)[O-])C2CC2)cc1 [compound 438]
protection score: 3 (the lesioned area ratio is less than 10%)

CSc1ccc(N(C)S(=O)(=O)c2ccc(C)cc2)c([N+](=O)[O-])c1 [Compound No. 226]
protection score: 3 (the lesioned area ratio is less than 10%)

Cc1ccc(S(=O)(=O)N(C)c2ccc([N+](=O)[O-])cc2Cl)cc1 [Compound No. 274]
protection score: 3 (the lesioned area ratio is less than 10%)

CC(=O)N(c1ccc(Cl)cc1[N+](=O)[O-])S(=O)(=O)c1ccc(C)cc1 [compound 311]
protection score: 3 (the lesioned area ratio is less than 10%)

CSCCN(c1ccc(Cl)cc1[N+](=O)[O-])S(=O)(=O)c1ccc(C)cc1 [Compound No. 307, 4′-Chloro-N-(2-methylthioethyl)-2′-nitro-p-toluenesulfonanilide]
protection score: 3 (the lesioned area ratio is less than 10%)

CCCOc1ccc(N(C)S(=O)(=O)c2ccc(C)cc2)c([N+](=O)[O-])c1 [Compound No. 216, N-Methyl-2′-nitro-4′-(n-propoxy)-p-toluenesulfonanilide]
protection score: 3 (the lesioned area ratio is less than 10%)

Cc1ccc(S(=O)(=O)N(CC(C)C)c2ccc(Cl)cc2[N+](=O)[O-])cc1 [compound 295]
protection score: 3 (the lesioned area ratio is less than 10%)

CN(c1ccc([N+](=O)[O-])cc1[N+](=O)[O-])S(=O)(=O)c1ccc(F)cc1 [compound 448]
protection score: 3 (the lesioned area ratio is less than 10%)

CCN(c1ccc(Cl)cc1[N+](=O)[O-])S(=O)(=O)c1ccccc1 [compound 277]
protection score: 3 (the lesioned area ratio is less than 10%)

Cc1ccc(S(=O)(=O)N(C)c2cc(Cl)ncn2)cc1 [compound 517]
protection score: 3 (the lesioned area ratio is less than 10%)

CON(c1ccc([N+](=O)[O-])cc1[N+](=O)[O-])S(=O)(=O)c1ccccc1Cl [Compound No. 563, 2-Chloro-2′,4′-dinitro-N-methoxybenzenesulfonanilide]
protection score: 3 (the lesioned area ratio is less than 10%)

Cc1ccc(S(=O)(=O)N(c2ccc(C#N)cc2C#N)C(C)C)cc1 [Compound No. 114, 2′,4′-Dicyano-N-isopropyl-p-toluenesulfonanilide]
protection score: 3 (the lesioned area ratio is less than 10%)

CCN(c1ccc(Cl)cc1[N+](=O)[O-])S(=O)(=O)c1cccc(C#N)c1 [compound 354]
protection score: 3 (the lesioned area ratio is less than 10%)

CON(c1ccc(SC)cc1C#N)S(=O)(=O)c1ccc(C)cc1 [Compound No. 571, 2′-Cyano-N-methoxy-4′-methylthio-p-toluenesulfonylanilide]
protection score: 3 (the lesioned area ratio is less than 10%)

Cc1ccc(S(=O)(=O)N(C)c2ccc(Cl)c([N+](=O)[O-])c2)cc1 [compound 396]
protection score: 3 (the lesioned area ratio is less than 10%)

CCN(c1ccc([N+](=O)[O-])cc1[N+](=O)[O-])S(=O)(=O)c1ccc(Cl)cc1 [compound 450]
protection score: 3 (the lesioned area ratio is less than 10%)

COC(=O)c1ccccc1N(C)S(=O)(=O)c1ccc(C)cc1 [compound 23]
protection score: 3 (the lesioned area ratio is less than 10%)

Cc1ccc(S(=O)(=O)N(C)c2ccc(Cl)cc2C#N)cc1 [compound 94, 4′-Chloro-2′-cyano-N-methyl-p-toluenesulfonanilide]
protection score: 3 (the lesioned area ratio is less than 10%)
